Results are given in words; binding and its absence hold for the method and conditions named. Binding seen in cells or lysates may run through a third protein. Some results given as binding are weak or reduced against the parent protein; the word gives no strength.
Target: T1, PP4 regulatory subunit PP4R2 (human (endogenous in HCT116)) (UniProt Q9NY27)
T1 sequence: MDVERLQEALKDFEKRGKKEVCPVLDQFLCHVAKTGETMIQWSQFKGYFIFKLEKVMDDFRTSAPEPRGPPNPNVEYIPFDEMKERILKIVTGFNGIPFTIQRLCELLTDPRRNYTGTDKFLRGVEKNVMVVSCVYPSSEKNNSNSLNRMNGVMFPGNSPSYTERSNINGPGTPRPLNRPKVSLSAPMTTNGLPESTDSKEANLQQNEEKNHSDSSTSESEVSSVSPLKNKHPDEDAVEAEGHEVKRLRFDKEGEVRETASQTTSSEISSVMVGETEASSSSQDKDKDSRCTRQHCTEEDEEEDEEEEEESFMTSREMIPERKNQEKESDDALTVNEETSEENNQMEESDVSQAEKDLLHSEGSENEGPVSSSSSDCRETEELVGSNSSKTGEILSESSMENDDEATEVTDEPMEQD
Experiment: co-IP; anti-PP4R2 or anti-PP4C immunoprecipitation from 2 mg HCT116 whole-cell extract in RIPA buffer (4 h, 4 °C; Protein G Sepharose), immunoblot; cells mock treated (DMSO) or pretreated with NVP-2 or RO-3306 for 1 h

binding: binds
B1: PP4C (catalytic subunit of protein phosphatase 4) (enzyme, UniProt P60510 1-307)
chain: MAEISDLDRQIEQLRRCELIKESEVKALCAKAREILVEESNVQRVDSPVTVCGDIHGQFYDLKELFRVGGDVPETNYLFMGDFVDRGFYSVETFLLLLALKVRYPDRITLIRGNHESRQITQVYGFYDECLRKYGSVTVWRYCTEIFDYLSLSAIIDGKIFCVHGGLSPSIQTLDQIRTIDRKQEVPHDGPMCDLLWSDPEDTTGWGVSPRGAGYLFGSDVVAQFNAANDIDMICRAHQLVMEGYKWHFNETVLTVWSAPNYCYRCGNVAAILELDEHLQKDFIIFEAAPQETRGIPSKKPVADYFL

Reference: PMC7455706
